This assay has as its system L1210 leukemia iv in BDF1 mice, survival T/C. Briefly: NCI In Vivo Anticancer Drug Screen. Data for tumor model L1210 Leukemia (intravenous) in B6D2F1 (BDF1) mice. Conditions: T/C endpoint: mean survival time, vehicle: saline, higher T/C = longer survival. Here is the method:
The antitumor activity of compounds was measured in mice bearing transplantable tumors. Survival or tumor size were measured and the results are expressed as the measurement made in the treated group (T) divided by the measurement made in the vehicle treated control group (C). The tumor model used in this assay is L1210 Leukemia (intravenous) in B6D2F1 (BDF1) mice

The record followed here is PubChem BioAssay AID254 (DTP/NCI, 2004).

The list shows only some results of the screen, not a fair sample: its compounds were picked by chemical class. Not every dose and run of a compound is shown. T/C is the treated group as % of the vehicle group. For survival time, the PubChem record calls one and a half times the control and up active, and a quarter to a half above the control has no call in these data; cut-offs in other NCI protocols can differ. Some T/C values are marked as having no survivor count here; that says nothing about deaths at the dose. Schedules are NCI's codes, taken here to give the interval after Q, in days (D) or hours (H), and the number of doses after X. Some schedules carry Z or #; the key to these is not given.

Regarding `NC1CCCCC1.NP(=O)(O)N(CCCl)CCCl`, the T/C is, setting by setting: (dose: 13.0 mg/kg/injection, schedule: Q## X007 (ip)) 154 % of control [survivor count not shown]; (dose: 20.0 mg/kg/injection, schedule: Q## X007 (ip)) 194 % of control [survivor count not shown]; (dose: 30.0 mg/kg/injection, schedule: Q## X007 (ip)) 244 % of control [survivor count not shown]; (dose: 35.0 mg/kg/injection, schedule: Q## X007 (ip)) 238 % of control [survivor count not shown]; (dose: 40.0 mg/kg/injection, schedule: Q## X007 (ip)) 184 % of control [survivor count not shown]; (dose: 92.0 mg/kg/injection, schedule: Q01DX001 (ip)) 172 % of control [survivor count not shown]. Also, the T/C is 208 % of control [survivor count not shown] (dose: 140.0 mg/kg/injection, schedule: Q01DX001 (ip)); 192 % of control [survivor count not shown] (dose: 210.0 mg/kg/injection, schedule: Q01DX001 (ip)); 156 % of control [survivor count not shown] (dose: 245.0 mg/kg/injection, schedule: Q01DX001 (ip)); 132 % of control [survivor count not shown] (dose: 280.0 mg/kg/injection, schedule: Q01DX001 (ip)).
